Results reported in US10478419B2, “Use of daphnoretin in prevention of tissue or organ transplant rejection or graft-versus-host-disease” (MacKay Memorial Hospital, priority 2017, dated 2019).
At least one compound was matched to its structure with a doubt left.

Test system: acute rejection of skin allografts
Assay: Skin allograft transplantation model
Conditions: rapamycin 3 mg/Kg/day intraperitoneally, vs control; FIG. 6 panel A

In the case of CO[C@H]1C[C@@H]2CC[C@@H](C)[C@@](O)(O2)C(=O)C(=O)N2CCCC[C@H]2C(=O)O[C@H]([C@H](C)C[C@@H]2CC[C@@H](O)[C@H](OC)C2)CC(=O)[C@H](C)/C=C(\C)[C@@H](O)[C@@H](OC)C(=O)[C@H](C)C[C@H](C)/C=C/C=C/C=C/1C [rapamycin, reference compound], the “survival fraction of the skin graft” value is reported as “increased the survival fraction of the skin graft”.
